In patent US20260212953A1, “An Integrative Framework to Identify Therapeutic Molecules for Treating Preterm Birth” (The Regents of the University of California, priority 2023, published 2026):
Entries after “also recorded” stand apart in the source; their conditions may differ. At least one structure is not confirmed: it was looked up by name or label, or the drawing left a doubt.

What was measured:
[1] = test system: primary human uterine smooth muscle cells (HUtSMC); assay: Collagen gel contraction assay; format: cell-based; details: for effect on HUtSMC contraction, quiescent state: PBS+DMSO as control
Excerpt: We performed experiments to determine the functional roles of the small molecules in regulating labor timing. Because labor onset is hallmarked by muscle contraction in the uterus, we asked whether these small molecules could alter smooth muscle contraction in the uterus. We performed collagen gel contraction assays on primary human uterine smooth muscle cells (HUtSMC) (Ying et al., 2015) to examine the modes of action of the top 9 candidate drugs from our prediction (FIG. 5D). For each drug, we tested its effect on modulating HUtSMC contractility in stimulated (by oxytocin to mimic labor-like phenotypes) and quiescent states by treating cells with oxytocin and vehicle, respectively. In either condition, we determined the pharmacological effects of our identified compounds on cellular contraction (each with at least 8 replicates).
Primary Human Uterine Smooth Muscle Cells (HUISMC) were purchased from PromoCells (Cat #C-12575, Fisher Scientific, MA). Collagen gel contraction assays were performed following (Kita et al., 2008; Ying et al., 2015) with modifications. Briefly, 150 ul of collagen (Cat #5074, SigmaAldrich) was added to each well in a 48-well plate. 80,000 HUtSMC suspension in 300 ul Smooth Muscle Cell Growth Basal Medium (Lonza #CC-3181) were seeded to each well after collagen polymerization for an hour. The cells were then treated with either testing compounds or DMSO in the presence of 100 nM oxytocin or PBS control. We carefully detached the collagen from the wells by tips after 1 hour incubation at 37° C., and fixed the cells with 4% paraformaldehyde in PBS for 30 minutes after 18 hours to ensure the equivalent culture durations for all groups before imaging. We captured bright-field images with microscope systems (AmScope, Irvine, CA), and measured the gel diameters in the captured images by ImageJ where the fold changes to no cell control were taken for statistical analysis. At least three biological replicates were performed for each compound, and technically triplicates were included in each biological replicate. Information about small molecules in the study could be found in Table 4.

[2] = test system: primary myometrial cell cultures; assay: RNA-Seq of primary myometrial cell cultures treated with FSK or IL-1B (Stanfield et al., 2019a); format: cell-based, human; details: published RNA-Seq data re-examined
Excerpt: Performing functional enrichment analysis, we observed that the 69 Group I genes were highly enriched for functions associated with the regulation of muscle contraction (FDR=8.10e-4), more specifically with relaxation of muscle (FDR=2.71e-3, FIG. 3H). This explained their elevated expression prior to labor as well as their down-regulation upon delivery to promote muscle contractility.
Note that inflammatory factors are known to promote muscle contractility during labor (Khanjani et al., 2011; Mendelson et al., 2019), explaining the down-regulation of Group II genes before labor and their activation during labor. We examined primary myometrial cell cultures treated with IL-1B to mimic tissue-level inflammation at the labor onset (Stanfield et al., 2019a). […] In fact, Group-II genes included a key inflammatory activators AP-1 (with its subunits JUN and FOS), which play a central role in regulating smooth muscle contractility proteins at labor onset (Mendelson et al., 2019).
We downloaded normalized FPKM gene expression matrix of RNA-seq data (GSE134896 and GSE163773) (Ackerman et al., 2021; Stanfield et al., 2019a) from GEO for primary myometrial cell cultures following treatment with Forskolin and Interleukin-1B, and for primary myometrium samples harvested from 31 women at labor. […]

[3] = test system: myometrial contraction induced by endothelin-1 (ET-1); details: previous study; cited from earlier work

COc1cc(Nc2c(C#N)cnc3cc(OCCCN4CCN(C)CC4)c(OC)cc23)c(Cl)cc1Cl [Bosutinib]
effect on myometrial cell contractility in either quiescent or contractile state [1]: altered myometrial contractility | effect on HUtSMC contraction, quiescent state [1]: significantly induced myometrial cell contraction

C=C[C@@]1(C)CC(=O)[C@]2(O)[C@@]3(C)[C@@H](O)CCC(C)(C)[C@@H]3[C@H](O)[C@H](OC(C)=O)[C@@]2(C)O1 [FSK, forskolin]
expression of Group-I genes upon treatment [2]: significant up-regulation of Group-I genes

O=c1cc(N2CCOCC2)oc2c(-c3ccccc3)cccc12 [LY294002]
effect on HUtSMC contraction, contractile state stimulated by oxytocin ([1]; 100 nM oxytocin, OXY+DMSO as control): attenuated myometrial contraction; also recorded: attenuated oxytocin-induced myometrial contractility | effect on myometrial cell contractility in either quiescent or contractile state [1]: altered myometrial contractility | effect on HUtSMC contraction, quiescent state [1]: significantly induced myometrial cell contraction; also recorded: significant effect on increasing myometrial contractility | effect on ET-1-induced myometrial contraction [3]: blocked myometrial contraction induced by endothelin-1 (ET-1)
